# This is one part of the list.
# B1: CD72 ectodomain (Homo sapiens), P21854 (protein)
# chain: RYLQVSQQLQQTNRVLEVTNSSLRQQLRLKITQLGQSAEDLQGSRRELAQSQEALQVEQRAHQAAEGQLQACQADRQKTKETLQSEEQQRRALEQKLSNMENRLKPFFTCGSADTCCPSGWIMHQKSCFYISLTSKNWQESQKQCETLSSKLATFSEIYPQSHSYYFLNSLLPNGGSGNSYWTGLSSNKDWKLTDDTQRTRTYAQSSKCNKVHKTWSWWTLESESCRSSLPYICEMTAFRFPD
# What was measured:
# Assay in all cases: glycan array binding signal (z-score within array); higher = stronger binding
# Settings in all cases: glycan notation: IUPAC condensed, linker removed
# [1] = molecular target: Fuc(a1-2)[GalNAc(a1-3)]Gal(b1-4)Glc
# Method in brief: (§1)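 Negative Z-scores can be read as non-binding. The Z-score is calculated within each array and then averaged across arrays of one protein sequence at different concentrations or buffers and across linkers. Arrays, 3228 in all, were curated from the Consortium for Functional Glycomics database and kept only where the protein sequence was available.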
# [2] = molecular target: Fuc(a1-2)[GalNAc(a1-3)]Gal(b1-4)GlcNAc
# Method in brief: as §1
# [3] = molecular target: Fuc(a1-2)[GalNAc(a1-3)]Gal(b1-4)GlcNAc(b1-2)Man(a1-3)[Fuc(a1-2)[GalNAc(a1-3)]Gal(b1-4)GlcNAc(b1-2)Man(a1-6)]Man(b1-4)GlcNAc(b1-4)GlcNAc
# Method in brief: as §1
# [4] = molecular target: Fuc(a1-2)[GalNAc(a1-3)]Gal(b1-4)GlcNAc(b1-2)Man(a1-3)[Fuc(a1-2)[GalNAc(a1-3)]Gal(b1-4)GlcNAc(b1-2)Man(a1-6)]Man(b1-4)GlcNAc(b1-4)[Fuc(a1-6)]GlcNAc
# Method in brief: as §1
# [5] = molecular target: Fuc(a1-2)[GalNAc(a1-3)]Gal(b1-4)GlcNAc(b1-3)Gal(b1-4)GlcNAc
# Method in brief: as §1
# [6] = molecular target: Fuc(a1-2)[GalNAc(a1-3)]Gal(b1-4)GlcNAc(b1-3)Gal(b1-4)GlcNAc(b1-3)Gal(b1-4)GlcNAc
# Method in brief: as §1
# [7] = molecular target: Fuc(a1-2)[GalNAc(a1-3)]Gal(b1-4)GlcNAc(b1-3)GalNAc
# Method in brief: as §1
# [8] = molecular target: Fuc(a1-2)[GalNAc(a1-3)]Gal(b1-4)[Fuc(a1-3)]GlcNAc
# Method in brief: as §1
# [9] = molecular target: Fuc(a1-2)[GalNAc(a1-3)]Gal(b1-4)[Fuc(a1-3)]GlcNAc(b1-3)GalNAc
# Method in brief: as §1
# [10] = molecular target: Fuc(a1-2)[GalNAc(a1-4)]Gal(b1-4)GlcNAc
# Method in brief: as §1
# [11] = molecular target: Fuc(a1-2)[GalNAc(b1-3)]Gal
# Method in brief: as §1
# Fuc(a1-3)GlcNAc = molecular target: Fuc(a1-3)GlcNAc
# Method in brief: as §1
# [12] = molecular target: Fuc(a1-3)[Gal(b1-4)]Glc6S
# Method in brief: as §1
# [13] = molecular target: Fuc(a1-3)[Gal(b1-4)]GlcNAc
# Method in brief: as §1
# [14] = molecular target: Fuc(a1-3)[Gal(b1-4)]GlcNAc(b1-2)Man(a1-3)[Fuc(a1-3)[Gal(b1-4)]GlcNAc(b1-2)Man(a1-6)]Man(b1-4)GlcNAc(b1-4)GlcNAc
# Method in brief: as §1
# [15] = molecular target: Fuc(a1-3)[Gal(b1-4)]GlcNAc(b1-2)Man(a1-3)[Fuc(a1-3)[Gal(b1-4)]GlcNAc(b1-2)Man(a1-6)]Man(b1-4)GlcNAc(b1-4)[Fuc(a1-6)]GlcNAc
# Method in brief: as §1
# [16] = molecular target: Fuc(a1-3)[Gal(b1-4)]GlcNAc(b1-3)Gal(b1-3)[Fuc(a1-4)]GlcNAc
# Method in brief: as §1
# [17] = molecular target: Fuc(a1-3)[Gal(b1-4)]GlcNAc(b1-3)GalNAc
# Method in brief: as §1
# [18] = molecular target: Fuc(a1-3)[Gal(b1-4)]GlcNAc(b1-4)Gal(b1-4)[Fuc(a1-3)]GlcNAc
# Method in brief: as §1
# [19] = molecular target: Fuc(a1-3)[Gal(b1-4)]GlcNAc(b1-4)Gal(b1-4)[Fuc(a1-3)]GlcNAc(b1-4)Gal(b1-4)[Fuc(a1-3)]GlcNAc
# Method in brief: as §1
# [20] = molecular target: Fuc(a1-3)[Gal(b1-4)]GlcNAc(b1-6)GalNAc
# Method in brief: as §1
# [21] = molecular target: Fuc(a1-3)[Gal(b1-4)]GlcNAc(b1-6)[Gal(b1-3)GlcNAc(b1-3)]Gal(b1-4)Glc
# Method in brief: as §1
# [22] = molecular target: Fuc(a1-3)[Gal(b1-4)]GlcNAc(b1-6)[Neu5Ac(a2-3)Gal(b1-3)]GalNAc
# Method in brief: as §1
# [23] = molecular target: Fuc(a1-3)[Gal(b1-4)]GlcNAc6S
# Method in brief: as §1
# [24] = molecular target: Fuc(a1-3)[Gal3S(b1-4)]GlcNAc
# Method in brief: as §1
# [25] = molecular target: Fuc(a1-3)[Gal3S(b1-4)]GlcNAc6S
# Method in brief: as §1
# [26] = molecular target: Fuc(a1-3)[GalNAc(b1-4)]GlcNAc
# Method in brief: as §1
# Fuc(a1-4)GlcNAc = molecular target: Fuc(a1-4)GlcNAc
# Method in brief: as §1
# Fuc(b1-3)GlcNAc = molecular target: Fuc(b1-3)GlcNAc
# Method in brief: as §1
# Gal(a1-2)Gal = molecular target: Gal(a1-2)Gal
# Method in brief: as §1
# Gal(a1-3)Gal = molecular target: Gal(a1-3)Gal
# Method in brief: as §1
# Gal(a1-3)Gal(b1-3)GlcNAc = molecular target: Gal(a1-3)Gal(b1-3)GlcNAc
# Method in brief: as §1
# [27] = molecular target: Gal(a1-3)Gal(b1-3)GlcNAc(b1-2)Man(a1-3)[Gal(a1-3)Gal(b1-3)GlcNAc(b1-2)Man(a1-6)]Man(b1-4)GlcNAc(b1-4)GlcNAc
# Method in brief: as §1
# [28] = molecular target: Gal(a1-3)Gal(b1-3)GlcNAc(b1-3)GalNAc
# Method in brief: as §1
# [29] = molecular target: Gal(a1-3)Gal(b1-3)[Fuc(a1-4)]GlcNAc(b1-2)Man(a1-3)[Gal(a1-3)Gal(b1-3)[Fuc(a1-4)]GlcNAc(b1-2)Man(a1-6)]Man(b1-4)GlcNAc(b1-4)GlcNAc
# Method in brief: as §1
# Gal(a1-3)Gal(b1-4)Glc = molecular target: Gal(a1-3)Gal(b1-4)Glc
# Method in brief: as §1
# Gal(a1-3)Gal(b1-4)GlcNAc = molecular target: Gal(a1-3)Gal(b1-4)GlcNAc
# Method in brief: as §1
binder,measurement,setting,value
B1,glycan array binding signal (z-score),[1],-0.821
same,glycan array binding signal (z-score),[2],0.03
same,glycan array binding signal (z-score),[3],0.299
same,glycan array binding signal (z-score),[4],0.886
same,glycan array binding signal (z-score),[5],-1.23
same,glycan array binding signal (z-score),[6],-0.098
same,glycan array binding signal (z-score),[7],0.592
same,glycan array binding signal (z-score),[8],1.95
same,glycan array binding signal (z-score),[9],0.623
same,glycan array binding signal (z-score),[10],0.065
same,glycan array binding signal (z-score),[11],0.747
same,glycan array binding signal (z-score),Fuc(a1-3)GlcNAc,-1.12
same,glycan array binding signal (z-score),[12],0.961
same,glycan array binding signal (z-score),[13],0.013
same,glycan array binding signal (z-score),[14],-0.986
same,glycan array binding signal (z-score),[15],0.575
same,glycan array binding signal (z-score),[16],-0.626
same,glycan array binding signal (z-score),[17],0.853
same,glycan array binding signal (z-score),[18],0.511
same,glycan array binding signal (z-score),[19],-1.08
same,glycan array binding signal (z-score),[20],1.78
same,glycan array binding signal (z-score),[21],-0.846
same,glycan array binding signal (z-score),[22],-0.261
same,glycan array binding signal (z-score),[23],0.197
same,glycan array binding signal (z-score),[24],0.084
same,glycan array binding signal (z-score),[25],-1.53
same,glycan array binding signal (z-score),[26],-1.58
same,glycan array binding signal (z-score),Fuc(a1-4)GlcNAc,-0.976
same,glycan array binding signal (z-score),Fuc(b1-3)GlcNAc,-2.09
same,glycan array binding signal (z-score),Gal(a1-2)Gal,0.56
same,glycan array binding signal (z-score),Gal(a1-3)Gal,-1.04
same,glycan array binding signal (z-score),Gal(a1-3)Gal(b1-3)GlcNAc,-0.141
same,glycan array binding signal (z-score),[27],0.087
same,glycan array binding signal (z-score),[28],0.114
same,glycan array binding signal (z-score),[29],1.75
same,glycan array binding signal (z-score),Gal(a1-3)Gal(b1-4)Glc,-0.449
same,glycan array binding signal (z-score),Gal(a1-3)Gal(b1-4)GlcNAc,-0.472

# In a second layout: entries from further up.
binder	measurement	setting	value
B1	glycan array binding signal (z-score)	[21]	-0.846
same	glycan array binding signal (z-score)	[22]	-0.261
same	glycan array binding signal (z-score)	[23]	0.197

# — the supplement of paper PMC8728848
